Data as given in PMC10163288.
The list shows a part of the results.

B1: il10ra_site1_normal_mot_HHH_b1_05056_000000217_0001_1_20_H_._HHH_b2_00128_0001_0000100005_0000001_0 (protein)
chain: SSSSSDYEEEVEELLEEAERIENPEEAAEVLQRATRLALEAQDPELLQLVWRVVKEIAGSSSSSS
B2: il10ra_site1_sap_21_mot_HHH_b1_07962_000000254_0001_41_55_H_._HHH_b2_07492_af2_0001_0000200005_0000002_0_0001_af2pred_dldesign_0_af2pred (protein)
chain: SSSSSDLDALIKELASLSTKVSLETAARLFDTLVRAHQLRQAGKPEEAAALLEAALAEVRSSSSS
B3: il10ra_site1_sap_22_mot_HHH_b2_04092_000000110_0001_42_56_H_._HHH_b2_08238_0001_0000500040_0000003_0_0001_af2pred_0001 (protein)
chain: SSSSSDEEYREQVEELLEEAKHIPDPDERSYVLIRAFALATQGRDPELEKLVEEVIKELISSSSS
B4: il10ra_site1_sap_14_mot_HHH_b2_04592_000000276_0001_41_54_H_._HHH_b2_03457_af2_0001_0000500035_0000002_0_0001 (protein)
chain: SSSSDRYVKLTIKFAEALLEAGDPEAARALLRALLQALKELGNEELFKEVEEILEEVERRSSSSS
B5: il10ra_site1_sap_21_mot_HHH_b2_00984_000000042_0001_1_20_H_._HHH_b1_03130_af2_0001_0000400023_0000002_0_0001_af2pred_0001 (protein)
chain: SSSSSEEELREIFEEAEELIEEALRKKDPELRHRVFRLIRELAELGDPEAALRLSKLFNSGSSSS
B6: il10ra_site1_normal_mot_HHH_b2_00943_af2_000000149_0001_1_17_H_._HHH_b1_03920_0001_0000300023_0000002_0 (protein)
chain: SSSSTNIEFLARQVFKALENLLEAGDEEKIEEVLRILENLARIHNDELAEELLREIREKLSSSSS
B7: il10ra_site1_normal_mot_HHH_b2_06864_af2_000000190_0001_1_20_H_._HHH_b2_08013_af2_0001_0000200015_0000001_0 (protein)
chain: SSSSQEAFEIAREAIERASELQRNGNPEEAEELLREAIREVEELGNQAAVFSLRHLLRLVSSSSS
B8: il10ra_site1_normal_mot_HHH_b1_06914_000000280_0001_1_18_H_._HHH_b1_02342_af2_0001_0000100001_0000001_0 (protein)
chain: SSSSSEDHEIYRLLREAAELEANGDPEKAREVLEEAEELAEELGNRNLLHVARFMLRALNSSSSS
B9: il10ra_site1_normal_mot_HHH_b2_02736_000000092_0001_22_38_H_._HHH_b1_08445_0001_0000500069_0000001_0 (protein)
chain: SSSSSQEVYELLRKAIELLREGNPEEAEKVLEEAEELAREENNEVLLYVIEFLDRDIKEQSSSSS
B10: il10ra_site1_sap_16_mot_HHH_b1_05052_000000015_0001_1_19_H_._HHH_b1_00808_af2_0001_0000100003_0000001_0_0001_af2pred_0001 (protein)
chain: SSSSSDEEEREVEEILREAEEIEDPEERSYALLRAYAVAYRVKDPELRKLVRRVARELISSSSSS

target: il10ra, Q13651; experiment: yeast display titration

Apparent Kd, inactive:
B1 no binding seen, B2 no binding seen, B3 no binding seen, B4 no binding seen, B5 no binding seen, B6 no binding seen, B7 no binding seen, B8 no binding seen, B9 no binding seen, B10 no binding seen
